Measured values reported in ChEMBL document CHEMBL3769309, “Design, synthesis and biological evaluation of bisthiazole-based trifluoromethyl ketone derivatives as potent HDAC inhibitors with improved cellular efficacy” (Eur J Med Chem, 2016).
pIC50: −log10 of the molar value.

The chains behind the UniProt entries cited, without tags or fusion partners. Where a name states a change or a piece, a line headed by the entry shows the natural chain unless it says otherwise.
UniProt P56524: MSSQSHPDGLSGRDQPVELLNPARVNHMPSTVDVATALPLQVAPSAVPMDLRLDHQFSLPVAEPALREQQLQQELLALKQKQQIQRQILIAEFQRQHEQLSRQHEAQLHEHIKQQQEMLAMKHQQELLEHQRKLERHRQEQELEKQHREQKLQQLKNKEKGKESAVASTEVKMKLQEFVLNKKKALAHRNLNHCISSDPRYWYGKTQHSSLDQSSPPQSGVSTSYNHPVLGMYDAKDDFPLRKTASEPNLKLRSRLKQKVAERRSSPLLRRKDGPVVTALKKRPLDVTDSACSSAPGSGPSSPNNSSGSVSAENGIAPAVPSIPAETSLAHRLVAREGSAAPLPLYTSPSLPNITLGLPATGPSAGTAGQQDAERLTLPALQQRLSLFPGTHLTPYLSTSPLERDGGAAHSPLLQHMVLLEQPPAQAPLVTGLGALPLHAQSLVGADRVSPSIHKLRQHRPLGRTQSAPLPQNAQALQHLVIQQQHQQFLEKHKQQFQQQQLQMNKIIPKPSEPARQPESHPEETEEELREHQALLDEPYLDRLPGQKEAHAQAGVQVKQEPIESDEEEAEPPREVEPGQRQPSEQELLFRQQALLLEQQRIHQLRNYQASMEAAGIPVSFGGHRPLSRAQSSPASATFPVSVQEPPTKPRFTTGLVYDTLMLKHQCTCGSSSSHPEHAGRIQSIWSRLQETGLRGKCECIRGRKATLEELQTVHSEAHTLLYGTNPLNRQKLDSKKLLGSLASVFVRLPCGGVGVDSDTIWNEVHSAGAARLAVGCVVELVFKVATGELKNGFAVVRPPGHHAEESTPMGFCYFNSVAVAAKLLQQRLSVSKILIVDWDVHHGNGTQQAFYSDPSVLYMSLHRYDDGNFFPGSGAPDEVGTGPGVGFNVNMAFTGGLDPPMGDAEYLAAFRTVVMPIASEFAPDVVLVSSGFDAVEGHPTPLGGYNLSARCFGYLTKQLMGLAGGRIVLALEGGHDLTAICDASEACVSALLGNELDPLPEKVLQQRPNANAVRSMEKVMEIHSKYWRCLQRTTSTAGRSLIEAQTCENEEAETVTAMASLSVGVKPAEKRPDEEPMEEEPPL
UniProt Q13547, whole entry: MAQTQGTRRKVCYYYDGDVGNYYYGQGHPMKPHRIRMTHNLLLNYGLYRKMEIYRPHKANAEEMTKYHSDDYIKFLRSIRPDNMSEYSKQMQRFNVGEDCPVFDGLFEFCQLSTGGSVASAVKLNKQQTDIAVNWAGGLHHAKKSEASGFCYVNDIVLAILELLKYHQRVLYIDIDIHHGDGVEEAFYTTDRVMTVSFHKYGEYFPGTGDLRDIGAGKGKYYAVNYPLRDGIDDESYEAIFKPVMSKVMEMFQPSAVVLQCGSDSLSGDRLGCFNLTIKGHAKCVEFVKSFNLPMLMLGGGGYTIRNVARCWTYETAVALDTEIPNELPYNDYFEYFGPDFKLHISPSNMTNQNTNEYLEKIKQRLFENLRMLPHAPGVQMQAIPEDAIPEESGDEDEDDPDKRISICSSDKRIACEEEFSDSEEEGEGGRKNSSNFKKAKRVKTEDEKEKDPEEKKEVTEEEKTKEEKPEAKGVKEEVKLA

Columns and labels:
[1] = target: Histone deacetylase 4 (Homo sapiens, UniProt P56524); experiment: Inhibition of full length His6-tagged GST-fused recombinant human HDAC4 expressed in High5 insect cells using Ac-Lys-Tyr-Lys (e-acetyl)-AMC as substrate after 24 hrs by fluorescence assay; type: cell-based
[2] = target: Histone deacetylase 1 (Homo sapiens, UniProt Q13547); experiment: Inhibition of full length His6-tagged GST-fused recombinant human HDAC1 expressed in High5 insect cells using Ac-Lys-Tyr-Lys (e-acetyl)-AMC as substrate after 24 hrs by fluorescence assay; type: cell-based

pIC50 [1] | pIC50 [2] | SMILES
6.73 | 6.84 | CC(C)Cc1sc(-c2nccs2)nc1C(=O)NCCCCC(=O)NO
6.80 |  | O=C(CCCCNC(=O)c1nc(-c2nccs2)sc1C1CC1)NO [BISTHIANOSTAT]
